In patent CN102924600A:
Results are given in words; binding and its absence hold for the method and conditions named. Some entries that bind do so weakly or less than the wild type.

The chains behind the UniProt entries cited, without tags or fusion partners. Residues count along the entry.
UniProt O14763, residues 56-210: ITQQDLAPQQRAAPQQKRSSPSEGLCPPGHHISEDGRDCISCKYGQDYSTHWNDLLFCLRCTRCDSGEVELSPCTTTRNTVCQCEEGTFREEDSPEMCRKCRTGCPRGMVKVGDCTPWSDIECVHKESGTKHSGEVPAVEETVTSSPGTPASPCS

Biological target: DR5胞外区蛋白 (DR5抗原, peproTech公司) (human) (UniProt O14763)
Assay: phage display panning on plate-coated DR5 antigen (5 rounds)

B1: 针对死亡受体5的单链抗体 (DR5单链抗体) (scFv)
scFv: DIVMTQSPSSLAVSAGERVTMSCKSSQSLLNSRTRKNCLAWYQQKPGQFPKLLIYWASTRESGVPDRFTGSGSGTDFTLTISSVQAEDLAVYYCQQSFDLPTFGGGTKLELKRGGGGSGGGGSGGGGSGGGGSEVQLQQSGAEPVKSGASVKLSCTASGFNIKDTFIHWVKQRPEQGLEWIGRIDPANGNTKYDPKFQGKATITADTSSNTVYLQFSSLTSEDAAVYYCSRGTTVYYFDHWGQGSTLTVSS
For B1, the binding was “binds”.
